Measured values from PubChem BioAssay AID662 (National Center for Advancing Translational Sciences (NCATS), 2007).
This is one part of the list. These are further read-outs of the screen, such as a control signal, another cell line or another target. No call is given for them. Most of these compounds were active or inconclusive in the main read-out, so they are no random draw. The note in brackets gives the kind of curve behind each potency; many fits are weak.

assay: Cell signaling CRE-BLA (Fsk stim); details: CHO CRE-bla reporter (cAMP response element driving beta-lactamase), forskolin EC10, beta-lactamase ratio; measured here: 460 nm blue channel
How it was run: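 qHTS titration format; CRE-bla CHO reporter; stimulus EC10 NKH 477, a water-soluble forskolin. Read: CCF4 460/530 nm ratio. Potency expressed as AC50 for activators or inhibitors.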

Structure (SMILES) | AC50
CCn1c(=O)[nH]c2ccccc21 | 31.6 µM [falling, single point]
COc1ccc(Nc2nnc(Cc3ccccc3)c(=O)[nH]2)c(OC)c1 | 12.6 µM [falling, partial curve, poor fit]
C=CCSc1nc2ccccc2c(=O)[nH]1 | 3.98 µM [rising, single point]
CCN(CC)c1nc(C#N)nc(N(CC)CC)n1 | 10 µM [rising, partial curve]
COc1ncc2nc(-c3cccc(C#N)c3)c(=O)n(CCC#N)c2n1 | 6.31 µM [rising, partial curve]
C=CCn1c(SCC(=O)Nc2cc(C)nn2-c2ccccc2)nnc1C1CCCCC1 | 3.98 µM [falling, partial curve]
CCCCNC(=O)c1ccc2c(c1)N(CC)C(=O)CS2 | 15.8 µM [rising, single point]
CCOC(=O)CNC(=O)CSc1nc2cccnc2n1C1CCCCC1 | 15.8 µM [rising, partial curve]
COc1ccccc1CNc1ccnc(-c2cccnc2)n1 | 7.94 µM [rising, partial curve]
O=C(C1CCN(S(=O)(=O)c2cccc3cccnc23)CC1)N1CC=C(c2ccccc2)CC1 | 12.6 µM [falling, partial curve]
O=C(c1ccc2nc(-c3ccco3)c(-c3ccco3)nc2c1)N1CCN(c2ccccc2)CC1 | 10 µM [rising, single point]
O=C(Nc1ccccc1C(F)(F)F)c1cc(-c2cccc(O)c2)on1 | 1.26 µM [falling, partial curve]
O=C(CSc1ncn[nH]1)c1ccco1 | 0.1 µM [falling, single point]
CCCCOn1c(C)c(C(=O)OCC)c2c3nonc3ccc21 | 10 µM [rising, partial curve]
O=C(CCN1C(=O)C2C3C=CC(C3)C2C1=O)NCC1CCCO1 (centres undefined) | 0.0398 µM [falling, full curve, poor fit]
Cc1c(NC(=O)c2ccc3c(c2)OCO3)c(=O)n(-c2ccccc2)n1C | 1 µM [falling, full curve]
CC(=O)NC12CC3CC(C1)CC(C(=O)OCC(=O)c1ccc4c(c1)OCCO4)(C3)C2 | 5.01 µM [falling, single point]
COc1ccc(OC)c(N=c2oc3cc(O)ccc3cc2C(N)=O)c1 | 10 µM [rising, partial curve]
Cc1cc(S(=O)(=O)NC2CCCCC2)c(C)s1 | 0.00794 µM [falling, full curve, poor fit]

Reformatted as comma-separated lines: two of the compounds above.
Structure (SMILES),AC50
COc1ncc2nc(-c3cccc(C#N)c3)c(=O)n(CCC#N)c2n1,"6.31 µM [rising, partial curve]"
C=CCn1c(SCC(=O)Nc2cc(C)nn2-c2ccccc2)nnc1C1CCCCC1,"3.98 µM [falling, partial curve]"
